Data as given in PubChem BioAssay AID1259329 (Drosophila RNAi Screening Center, 2017)

Assay: 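Vehicle-only control for knock-down screens on manganese or zinc toxicity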
Cells: Drosophila S2R+ cells
Knock-down reagent: long dsRNA against Drosophila genes
Time to read-out: 5 days (4 days knock-down, then 1 day after water)
Conditions: water added as vehicle control, no metal, one day before read-out
Detection: 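After 4 days of knock-down, water was added with no metal, and total ATP was read by luciferase light a day later on two plate copies, as mean z-score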
Reading the numbers: mean ATP z-score: higher = more total ATP, likely more viable cells
Rule for the call: 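Active means the absolute value of the z-score is over 1.5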
The deposit covers 418 reagents; this is an unselected part. 20 of them (4.8%) were called active. 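All active calls have high ATP; no reagent fell below -1.5.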 Reagents against one gene are numbered here. Reagent sequences are not shown. Not given: the amount of reagent, the dose of the treatment.

Vha36-3 (Vacuolar H[+] ATPase 36kD subunit 3) #1
- mean ATP z-score: 0.0334
- activity call: inactive

Vha36-3 (Vacuolar H[+] ATPase 36kD subunit 3) #2
- mean ATP z-score: 0.439
- activity call: inactive

Gba1a (Glucocerebrosidase 1a)
- mean ATP z-score: 0.594
- activity call: inactive

hay (haywire) #1
- mean ATP z-score: 2.36
- activity call: active

hay (haywire) #2
- mean ATP z-score: 4.02
- activity call: active

hay (haywire) #3
- mean ATP z-score: 0.576
- activity call: inactive

Dci (Dodecenoyl-CoA delta-isomerase) #1
- mean ATP z-score: -0.0939
- activity call: inactive

Dci (Dodecenoyl-CoA delta-isomerase) #2
- mean ATP z-score: -1.13
- activity call: inactive

CG7997 #1
- mean ATP z-score: -0.283
- activity call: inactive

CG7997 #2
- mean ATP z-score: -1.19
- activity call: inactive

Vha100-4 (Vacuolar H[+] ATPase 100kD subunit 4) #1
- mean ATP z-score: -0.025
- activity call: inactive

Vha100-4 (Vacuolar H[+] ATPase 100kD subunit 4) #2
- mean ATP z-score: 1.1
- activity call: inactive

JhI-21 (Juvenile hormone Inducible-21) #1
- mean ATP z-score: 0.792
- activity call: inactive

JhI-21 (Juvenile hormone Inducible-21) #2
- mean ATP z-score: -0.063
- activity call: inactive

Ect3 (Ectoderm-expressed 3) #1
- mean ATP z-score: 0.927
- activity call: inactive

Ect3 (Ectoderm-expressed 3) #2
- mean ATP z-score: -0.508
- activity call: inactive

Ect3 (Ectoderm-expressed 3) #3
- mean ATP z-score: -0.18
- activity call: inactive

Vha68-3 (Vacuolar H[+] ATPase 68kD subunit 3) #1
- mean ATP z-score: 0.767
- activity call: inactive

Vha68-3 (Vacuolar H[+] ATPase 68kD subunit 3) #2
- mean ATP z-score: -0.6
- activity call: inactive

Vps35 (Vacuolar protein sorting 35) #1
- mean ATP z-score: -0.393
- activity call: inactive

Vps35 (Vacuolar protein sorting 35) #2
- mean ATP z-score: 0.725
- activity call: inactive

Vps35 (Vacuolar protein sorting 35) #3
- mean ATP z-score: 0.761
- activity call: inactive

Amacr (Alpha-methylacyl-CoA racemase)
- mean ATP z-score: -0.333
- activity call: inactive

Dhrs4 (Dehydrogenase/reductase 4)
- mean ATP z-score: -0.752
- activity call: inactive

Vha16-5 (Vacuolar H[+] ATPase 16kD subunit 5) #1
- mean ATP z-score: -0.211
- activity call: inactive

Vha16-5 (Vacuolar H[+] ATPase 16kD subunit 5) #2
- mean ATP z-score: -0.921
- activity call: inactive

Vha16-5 (Vacuolar H[+] ATPase 16kD subunit 5) #3
- mean ATP z-score: -1.27
- activity call: inactive

VhaM9.7-a (Vacuolar H[+] ATPase M9.7 subunit a) #1
- mean ATP z-score: -1.45
- activity call: inactive

VhaM9.7-a (Vacuolar H[+] ATPase M9.7 subunit a) #2
- mean ATP z-score: 0.935
- activity call: inactive

mv (mauve) #1
- mean ATP z-score: -0.482
- activity call: inactive

mv (mauve) #2
- mean ATP z-score: 0.0463
- activity call: inactive

mv (mauve) #3
- mean ATP z-score: -0.534
- activity call: inactive

CG15117 #1
- mean ATP z-score: 0.477
- activity call: inactive

CG15117 #2
- mean ATP z-score: -0.457
- activity call: inactive

CG15117 #3
- mean ATP z-score: -0.313
- activity call: inactive

Vps28 (Vacuolar protein sorting 28) #1
- mean ATP z-score: 0.397
- activity call: inactive

Vps28 (Vacuolar protein sorting 28) #2
- mean ATP z-score: -0.231
- activity call: inactive

Vps28 (Vacuolar protein sorting 28) #3
- mean ATP z-score: -0.817
- activity call: inactive

or (orange) #1
- mean ATP z-score: -0.804
- activity call: inactive

or (orange) #2
- mean ATP z-score: 0.738
- activity call: inactive

or (orange) #3
- mean ATP z-score: -0.82
- activity call: inactive

Vps4 (Vacuolar protein sorting 4) #1
- mean ATP z-score: 1.13
- activity call: inactive

Vps4 (Vacuolar protein sorting 4) #2
- mean ATP z-score: 0.334
- activity call: inactive

Vps4 (Vacuolar protein sorting 4) #3
- mean ATP z-score: -0.889
- activity call: inactive

Muc11A (Mucin 11A)
- mean ATP z-score: 1.11
- activity call: inactive

CG12355 #1
- mean ATP z-score: 0.566
- activity call: inactive

CG12355 #2
- mean ATP z-score: -0.328
- activity call: inactive
